# Test results published in patent US20210024639A1 (AGOMAB THERAPEUTICS, published 2021).
# These are yes or no findings as the source states them, for the method shown. For part of these data: Binding can be weak; no strength is given.
# B1: chimeric llama-human IgG1 mAb 71G3 (antibody, V domains shown)
# VH: QVQLVESGGGLVQPGGSLRVSCAASGFTFSTYYMSWVRQAPGKGLEWVSDIRTDGGTYYADSVKGRFTMSRDNAKNTLYLQMNSLKPEDTALYYCARTRIFPSGYDYWGQGTQVTVSS
# VL: QAVVTQEPSLSVSPGGTVTLTCGLSSGSVTTSNYPGWFQQTPGQAPRTLIYNTNSRHSGVPSRFSGSISGNKAALTIMGAQPEDEADYYCSLYPGSTTVFGGGTHLTVL
# B2: chimeric llama-human IgG1 mAb 76G7 (antibody, V domains shown)
# VH: QVQLVESGGNLVQPGGSLRLSCAASGFTFSNYYMSWVRQAPGKGLEWVSDIYSDGSTTWYSDSVKGRFTISRDNAKNTLSLQMNSLKSEDTAVYYCARVKIYPGGYDAWGQGTQVTVSS
# VL: QAGLTQPPSVSGSPGKTVTISCAGNSSDVGYGNYVSWYQQFPGMAPKLLIYLVNKRASGITDRFSGSKSGNTASLTISGLQSEDEADYYCASYTGSNNIVFGGGTHLTVL
# B3: chimeric llama-human IgG1 mAb 72F8 (antibody, V domains shown)
# VH: ELQLVESGGGLVQPGGSLRLSCAASGFTFSNYVMSWVRQAPGKGLEWVSDTNSGGSTSYADSVKGRFTISRDNAKNTLYLQMNSLKPEDTALYYCARSFFYGMNYWGKGTQVTVSS
# VL: QSALTQPPSLSASPGSSVRLTCTLSSGNNIGSYDISWYQQKAGSPPRYLLNYYTDSRKHQDSGVPSRFSGSKDASANAGLLLISGLQPEDEADYYCSAYKSGSYRWVFGGGTHVTVL
# Tests used:
# [1] = molecular target: llama MET ECD (llama); assay: ELISA, protein in solid phase
# [2] = molecular target: llama-human MET chimeric protein CH6; assay: ELISA, protein in solid phase
# [3] = molecular target: llama-human MET chimeric protein CH7; assay: ELISA, protein in solid phase
# [4] = molecular target: T1, human MET extracellular domain (ECD) (human, UniProt P08581 25-932); assay: ELISA, MET ECD in solid phase
# T1 construct: range 1-932; recombinant ECD; also called hMET; human MET ECD
# [5] = molecular target: T2, mouse MET extracellular domain (ECD) (mouse, UniProt P16056 25-931); assay: ELISA, MET ECD in solid phase
# T2 construct: range 1-931; recombinant ECD; also called mMET; mouse MET ECD
# [6] = molecular target: T1, human MET extracellular domain (ECD); assay: ELISA, protein in solid phase, mAb 0-20 nM
# [7] = molecular target: llama-human MET chimeric protein CH1; assay: ELISA, protein in solid phase, mAb 0-20 nM
# [8] = molecular target: llama-human MET chimeric protein CH2; assay: ELISA, protein in solid phase, mAb 0-20 nM
# [9] = molecular target: llama-human MET chimeric protein CH3; assay: ELISA, protein in solid phase, mAb 0-20 nM
# [10] = molecular target: llama-human MET chimeric protein CH4; assay: ELISA, protein in solid phase, mAb 0-20 nM
# [11] = molecular target: llama-human MET chimeric protein CH5; assay: ELISA, protein in solid phase, mAb 0-20 nM
# [12] = molecular target: llama-human MET chimeric protein CH3; assay: ELISA, protein in solid phase
# [13] = molecular target: llama-human MET chimeric protein CH4; assay: ELISA, protein in solid phase
# [14] = molecular target: llama-human MET chimeric protein CH5; assay: ELISA, protein in solid phase
# [15] = molecular target: llama-human MET chimeric protein CH6; assay: ELISA, protein in solid phase, mAb 0-20 nM
# [16] = molecular target: llama-human MET chimeric protein CH7; assay: ELISA, protein in solid phase, mAb 0-20 nM
binder,measurement,setting,value
B1,binding,[1],no binding (tested: 0-20 nM)
same,binding,[2],no binding (tested: 0-20 nM)
same,binding,[3],no binding (tested: 0-20 nM)
same,binding,[4],binds
same,binding,[5],binds
same,binding,[6],binds
same,binding,[7],binds
same,binding,[8],binds
same,binding,[9],binds
same,binding,[10],binds
same,binding,[11],binds
B2,binding,[1],no binding (tested: 0-20 nM)
same,binding,[2],no binding (tested: 0-20 nM)
same,binding,[3],no binding (tested: 0-20 nM)
same,binding,[4],binds
same,binding,[5],binds
same,binding,[6],binds
same,binding,[7],binds
same,binding,[8],binds
same,binding,[9],binds
same,binding,[10],binds
same,binding,[11],binds
B3,binding,[1],no binding (tested: 0-20 nM)
same,binding,[12],no binding (tested: 0-20 nM)
same,binding,[13],no binding (tested: 0-20 nM)
same,binding,[14],no binding (tested: 0-20 nM)
same,binding,[4],binds
same,binding,[5],binds
same,binding,[6],binds
same,binding,[7],binds
same,binding,[8],binds
same,binding,[15],binds
same,binding,[16],binds
